Values from PubChem BioAssay AID1224830 (NIAID, 2016)
In all, the deposit lists about 18,000 reagents; below is an unselected part. Of all reagents, about 2,900 (16%) were called active. 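Calls are made per well; low scores hint the gene aids the LPS response, high scores that it dampens it.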 Repeated entries: four replicate wells of each siRNA pool. Reagent sequences are not shown.

Purpose: 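Host factors that control LPS-induced TNF expression in human macrophages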 (primary screen)
System: human THP-1 monocytic leukaemia cells, TNF dual-luciferase reporter clone, PMA-differentiated to macrophage-like cells
Reagent: siRNA pool against human genes, 50 nM
Timing: LPS for 4 h, given about 3 days after siRNA transfection
Conditions: bacterial LPS (TLR4 ligand), 10 ng/ml
Detection: 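Ratio of firefly to renilla light, scaled to the plate median and expressed as a robust z-score per replicate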
Scale: TNF reporter robust z-score: higher = stronger TNF reporter response to LPS
Hit rule: 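a well is active when its z-score exceeds 2.8 or falls below -1.5; control wells carry no call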

target	TNF reporter robust z-score	activity call
KRI1	-0.17	inactive
KRI1	-0.12	inactive
KRI1	0.43	inactive
KRI1	0.58	inactive
ACTRT1	-0.12	inactive
ACTRT1	-0.63	inactive
ACTRT1	-0.84	inactive
ACTRT1	-0.33	inactive
KRTAP5-7	-0.26	inactive
KRTAP5-7	-1.06	inactive
KRTAP5-7	-0.9	inactive
KRTAP5-7	-0.33	inactive
CABP4	0.64	inactive
CABP4	1.04	inactive
CABP4	0.43	inactive
CABP4	0.71	inactive
CSNK1D	0.66	inactive
CSNK1D	0.31	inactive
CSNK1D	-0.28	inactive
CSNK1D	2.56	inactive
LUZP1	3.72	active
LUZP1	1.71	inactive
LUZP1	0.24	inactive
LUZP1	0.95	inactive
EXPH5	-1.47	inactive
EXPH5	-0.53	inactive
EXPH5	-0.78	inactive
EXPH5	-0.67	inactive
MRPL16	-1	inactive
MRPL16	-0.79	inactive
MRPL16	-0.71	inactive
MRPL16	-0.53	inactive
SELENOH	-0.29	inactive
SELENOH	0.59	inactive
SELENOH	0.13	inactive
SELENOH	0.03	inactive
PARP1	-0.57	inactive
PARP1	-0.42	inactive
PARP1	-0.67	inactive
PARP1	-0.52	inactive
SLC2A2	0.11	inactive
SLC2A2	0.76	inactive
SLC2A2	-0.46	inactive
SLC2A2	1.95	inactive

Next part (13 carried over from the part before).
target	TNF reporter robust z-score	activity call
MRPL16	-0.53	inactive
SELENOH	-0.29	inactive
SELENOH	0.59	inactive
SELENOH	0.13	inactive
SELENOH	0.03	inactive
PARP1	-0.57	inactive
PARP1	-0.42	inactive
PARP1	-0.67	inactive
PARP1	-0.52	inactive
SLC2A2	0.11	inactive
SLC2A2	0.76	inactive
SLC2A2	-0.46	inactive
SLC2A2	1.95	inactive
KRTAP10-8	0.28	inactive
KRTAP10-8	0.81	inactive
KRTAP10-8	1.3	inactive
KRTAP10-8	-0.75	inactive
NEUROG3	0.45	inactive
NEUROG3	-0.47	inactive
NEUROG3	-0.27	inactive
NEUROG3	-0.29	inactive
SYT17	-0.55	inactive
SYT17	0.16	inactive
SYT17	0.14	inactive
SYT17	2.22	inactive
PPP1R1B	1.64	inactive
PPP1R1B	2.43	inactive
PPP1R1B	0.18	inactive
PPP1R1B	1.2	inactive
SLC6A9	-0.33	inactive
SLC6A9	-0.22	inactive
SLC6A9	-0.66	inactive
SLC6A9	-0.17	inactive
TBC1D20	-0.7	inactive
TBC1D20	-0.91	inactive
TBC1D20	-0.83	inactive
TBC1D20	-0.64	inactive
ADAM30	0.06	inactive
ADAM30	-0.66	inactive
ADAM30	0.16	inactive
ADAM30	-0.33	inactive
ORMDL2	1.54	inactive
ORMDL2	0.54	inactive
ORMDL2	2	inactive
ORMDL2	2.14	inactive
C1orf122	0.36	inactive
C1orf122	-0.16	inactive
C1orf122	0.23	inactive
C1orf122	1.26	inactive
CDH15	0.08	inactive
CDH15	-0.01	inactive
CDH15	-0.46	inactive
CDH15	-0.36	inactive
LY6S-AS1	1.48	inactive
LY6S-AS1	1.45	inactive
LY6S-AS1	1.07	inactive
LY6S-AS1	2.57	inactive
IL5	3.2	active
IL5	1.67	inactive
IL5	2	inactive
IL5	3.02	active
HPRT1	-1.08	inactive
HPRT1	0.14	inactive
HPRT1	-1.07	inactive
HPRT1	-1.13	inactive
MTAP	0.37	inactive
MTAP	0.67	inactive
MTAP	0.45	inactive
MTAP	0.8	inactive
MRS2	0.76	inactive
MRS2	0	inactive
MRS2	1.89	inactive
MRS2	0.2	inactive
RAD51	-1.49	inactive
RAD51	-1.69	active
RAD51	-1.48	inactive
RAD51	-0.95	inactive
PARP2	1.37	inactive
PARP2	2.08	inactive
PARP2	1.41	inactive
PARP2	1.28	inactive
